Record: PubChem BioAssay AID1259424 (University of Nebraska Medical Center, 2018)
Assay: 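Find knockdowns that reproduce the expression shifts seen after KSR1 loss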 (primary screen). System: human HCT116 colon cancer cells. Knock-down reagent: siRNA pool against human genes, 50 nM. Detection: 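Log2 levels of six mRNAs (branched-DNA multiplex), adjusted by two reference genes and the non-targeting median, then scored against the average KSR1 knockdown pattern as Pearson r and euclidean distance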. Scale: mean correlation with KSR1 profile and KSR1 correlation: higher = expression change more like KSR1 knockdown; mean distance from KSR1 profile: higher = expression change less like KSR1 knockdown.
This is one part, drawn at random, of about 14,000 reagents tested. 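Higher correlation or smaller distance means closer resemblance to KSR1 loss; control wells, including KSR1 knockdowns, recur on many plates.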 Not given: the time to read-out.

| gene | mean correlation with KSR1 profile | mean distance from KSR1 profile | KSR1 correlation, replicate 1 | KSR1 correlation, replicate 2 | KSR1 correlation, replicate 3 |
| --- | --- | --- | --- | --- | --- |
| DBH (GeneID 1621) | -0.772 | 3.19 | -0.627 | -0.94 | -0.81 |
| SNRNP200 (GeneID 23020) | -0.25 | 2.64 | -0.314 | -0.0964 | -0.425 |
| GDF15 (GeneID 9518) | 0.581 | 1.4 | 0.5 | 0.577 | 0.517 |
| WDR18 (GeneID 57418) | -0.537 | 4.66 | -0.513 | -0.424 | -0.412 |
| MTMR14 (GeneID 64419) | -0.182 | 1.1 | -0.206 | -0.428 | -0.308 |
| LZTS1 (GeneID 11178) | 0.297 | 1.92 | 0.7 | 0.44 | -0.0313 |
| GCDH (GeneID 2639) | -0.267 | 1.73 | -0.188 | -0.418 | -0.244 |
| GNAZ (GeneID 2781) | 0.755 | 1.57 | 0.695 | 0.866 | 0.708 |
| CAMK2B (GeneID 816) | -0.79 | 2.41 | -0.394 | -0.506 | -0.903 |
| HPCAL1 (GeneID 3241) | 0.777 | 0.779 | 0.643 | 0.736 | 0.751 |
| ZFX (GeneID 7543) | -0.0595 | 4.69 | -0.105 | 0.0347 | 0.0663 |
| CASC3 (GeneID 22794) | -0.495 | 2.88 | -0.155 | -0.637 | -0.481 |
| TMEM121B (GeneID 27439) | -0.113 | 2.38 | -0.424 | -0.232 | -0.2 |
| ARTN (GeneID 9048) | -0.292 | 2.43 | -0.194 | -0.388 | -0.156 |
| ADAM9 (GeneID 8754) | 0.102 | 2.8 | 0.00454 | -0.0458 | -0.199 |
| SCLY (GeneID 51540) | 0.362 | 1.92 | 0.0805 | 0.671 | 0.453 |
| PCDHB7 (GeneID 56129) | -0.225 | 2.03 | -0.298 | -0.466 | -0.0382 |
| TLX2 (GeneID 3196) | -0.579 | 3.61 | -0.483 | -0.654 | -0.368 |
| PDP2 (GeneID 57546) | -0.463 | 2.39 | -0.549 | -0.583 | -0.274 |
| AGER (GeneID 177) | 0.171 | 1.81 | 0.232 | 0.0104 | 0.211 |
